Hit rate of the full screen: of about 59,000 compounds, about 6,500 (11%) were called active. The inconclusive results got no clear call from the source; some entries with a clear call stand among them for comparison. Cut-off read from the data, not from the text of the source: active = max dye-equivalent concentration above about 10 nM; inconclusive = mostly about 1.1 nM to 9.6 nM; inactive = weaker than that.
Assay: qHTS Assay for Spectroscopic Profiling in A350 Spectral Region
Conditions: Compound autofluorescence, 340/450 nm, Alexa 350 dye-equivalents; hits give high values

Row | Structure (SMILES) | max dye-equivalent concentration
1 | CN(C)c1nc(N)c(C(=O)N=C(N)N)nc1Cl | inconclusive: 7.8 nM
2 | O=C(c1ccco1)c1cn[nH]c1-c1ccc(Cl)cc1O | inconclusive: 3.5 nM
3 | COc1ccc(C2C(C#N)=C(N)Oc3cc(O)ccc32)cc1OC (configuration not stated) | inconclusive: 3.3 nM
4 | Cc1ccc(CCN2CC(C(=O)NC3CCCC3)CC2=O)cc1 (configuration not stated) | inconclusive: 1.7 nM
5 | O=C1COc2ccc(C(=O)c3ccccc3)cc2CN1 | inconclusive: 2.3 nM
6 | COC(=O)Cn1cc(C(=O)c2ccco2)c2ccccc21 | inconclusive: 2.2 nM
7 | O=C(CSc1ccc2nnc(-c3ccccc3)n2n1)NCc1ccco1 | inconclusive: 5.4 nM
8 | Cc1ccc(NC(=O)N(Cc2cc3cc(C)cc(C)c3[nH]c2=O)CC2COCCO2)cc1 (configuration not stated) | inconclusive: 2.4 nM
9 | CCOC(=O)C1(C)NC(c2ccc(OC)c(OC)c2)C2C(=O)N(CC)C(=O)C21 (configuration not stated) | inactive
10 | O=S(=O)(c1ccc(Cl)cc1)N1CCN(c2ccc(N3CCOCC3)nn2)CC1 | active: 60 nM
11 | COc1ccc(Cn2c(=O)sc3ccccc32)cc1OC | inactive
12 | CN1C(=O)SC(Nc2ccc(F)cc2)C1=O (configuration not stated) | inconclusive: 1.3 nM
13 | COc1ccc(CNc2cc(-c3ccoc3)ncn2)c(OC)c1 | inactive
14 | COC(=O)c1ccc(CSc2nc3c(cnn3-c3ccc(F)cc3)c(=O)[nH]2)o1 | inconclusive: 1.4 nM
15 | O=C(Oc1oc(-c2ccco2)nc1C=Nc1ccccc1)c1ccoc1 | inconclusive: 2.4 nM
16 | CCOC(=O)c1[nH]c(=O)c2ccccc2c1O | active: 27 nM
17 | COc1ccc(C(C)=O)cc1CN1C(=O)C(C)N(c2ccc(C)cc2)C1=O (configuration not stated) | inconclusive: 1.3 nM
18 | Nc1ccnn1Cc1cccnc1 | inconclusive: 2.3 nM
19 | CCCCNC(=O)CSc1nc2cc3c(cc2c(=O)n1CCCN(CC)CC)OCO3 | inconclusive: 9.9 nM
20 | Cc1cc(NC(=O)Cn2nnc3sc4c(c3c2=O)CCC(C(C)(C)C)C4)no1 (configuration not stated) | inconclusive: 3.7 nM
21 | Cc1ccc(S(=O)(=O)N2CCCC2C(=O)Oc2ccccc2)cc1 (configuration not stated) | inconclusive: 1.4 nM
22 | Cc1ccc(-n2nnc3c(=O)n(CC(=O)N4CCC(C)CC4)cnc32)cc1 | inactive
23 | CC(CN1CCOCC1)OC(=O)c1ccc2c(c1)OCCO2 (configuration not stated) | inconclusive: 1.4 nM

Row | Structure (SMILES) | max dye-equivalent concentration
24 | CCn1c(=O)n(CC)c2cc(S(=O)(=O)N3CCc4ccccc43)ccc21 | inactive
25 | CC1(C)Cc2cccc(OCC(=O)N3CCN(S(=O)(=O)c4ccccc4)CC3)c2O1 | inconclusive: 3.1 nM
26 | CCOC(=O)C1=C(C)NC2=C(C(=O)CC(C)(C)C2)C1c1cccc(C)n1 (configuration not stated) | active: 970 nM
27 | Cc1cnc(C(=O)OCC(=O)Nc2ccc(Oc3ccccc3)cc2)cn1 | inconclusive: 1.1 nM
28 | CC(NC(=O)c1ccccc1NC(=O)c1ccco1)c1ccccc1 (configuration not stated) | inactive
29 | O=c1c(C(c2nnnn2C2CCCCC2)N2CCCCC2)coc2ccc(Cl)cc12 (configuration not stated) | inactive
30 | CCOC(=O)N1CCN(c2c(-c3ccccc3)c3cc(Cl)ccc3[nH]c2=O)CC1 | active: 35 nM
31 | Cc1ccc(-c2nnn(CC(=O)N(Cc3ccccc3)C(C(=O)NC3CCCC3)c3ccncc3)n2)o1 (configuration not stated) | inactive
32 | O=C(CCC1CCCC1)NCc1ccccn1 | inconclusive: 1.1 nM
33 | CC1(C)S[C@@H]2[C@H](NC(=O)COc3ccccc3)C(=O)N2[C@H]1C(=O)O (tested in a mixture with another compound) | inactive
34 | CS(=O)(=O)N1CCCC(C(=O)NCCCN2CCC(Cc3ccccc3)CC2)C1 (configuration not stated) | inactive
35 | COC(=O)c1ccc(C2/C(=C(/O)c3ccc(OC(C)C)cc3)C(=O)C(=O)N2c2cc(C)on2)cc1 (configuration not stated) | inconclusive: 1.3 nM
36 | COCCCn1c(SCC(=O)N2CCCCC2C)nnc1-c1ccco1 (configuration not stated) | inconclusive: 1.5 nM
37 | CN(C)c1ncc2nc(-c3cccs3)c(=O)n(Cc3cccs3)c2n1 | inactive
38 | N#Cc1nc(-c2ccco2)oc1N1CCC(C(N)=O)CC1 | active: 16 nM
39 | CCN(Cc1ccncc1)C(=O)[C@@H](CO)c1ccccc1 | inactive
40 | CN=C1c2ccccc2CN1c1cccc(C(=O)OC)c1 | inconclusive: 3.2 nM
41 | O=C1CC(c2ccc(F)cc2)Cc2nc(N3CCN(c4ccccc4)CC3)ncc21 (configuration not stated) | inconclusive: 3.7 nM
42 | O=c1c(CCc2ccccc2)nc2cncnc2n1C1CC1 | inactive
43 | CC(=O)NCCn1ccc2ccccc21 | inactive
44 | CCOc1ccc(-c2nc(CSc3nncs3)cs2)cc1OC | inactive
45 | CCOC(=O)c1cnc2c(-c3ccccc3)cnn2c1N | active: 29 nM
46 | O=C(OCc1nc2ccccc2s1)c1cccs1 | inconclusive: 4.3 nM

2 of the compounds above, as tab-separated lines:
Row	Structure (SMILES)	max dye-equivalent concentration
36	COCCCn1c(SCC(=O)N2CCCCC2C)nnc1-c1ccco1 (configuration not stated)	inconclusive: 1.5 nM
43	CC(=O)NCCn1ccc2ccccc21	inactive

3 entries out of the list, ordered by molecular weight, smallest number first:
Row | Structure (SMILES) | max dye-equivalent concentration
1 | CN(C)c1nc(N)c(C(=O)N=C(N)N)nc1Cl | inconclusive: 7.8 nM
21 | Cc1ccc(S(=O)(=O)N2CCCC2C(=O)Oc2ccccc2)cc1 (configuration not stated) | inconclusive: 1.4 nM
25 | CC1(C)Cc2cccc(OCC(=O)N3CCN(S(=O)(=O)c4ccccc4)CC3)c2O1 | inconclusive: 3.1 nM

Following part.

Row | Structure (SMILES) | max dye-equivalent concentration
47 | CCOC(=O)CSc1nc2cc(C(=O)N3CCC(C(N)=O)CC3)ccc2c(=O)n1-c1ccccc1 | inconclusive: 2.2 nM
48 | COc1ccc(OC)c(C2C(C(=O)c3cccs3)=C(O)C(=O)N2CCN(C)C)c1 (configuration not stated) | inconclusive: 1.1 nM
49 | CCOc1ccc2nc(C)cc(C(=O)O)c2c1 | active: 150 nM
50 | O=S(=O)(c1ccccc1)N1CCC(N2CCN(c3ccccc3)CC2)CC1 | inactive
51 | O=C(Nc1ccc2oc(=O)c(C(=O)O)cc2c1)Oc1ccccc1 | active: 55 nM
52 | CC(C)N(Cc1cc2ccccc2[nH]c1=O)C(=O)C(C)(C)C | inconclusive: 1.2 nM
53 | COc1ccc(CNc2ncnc3ccc(-c4ccc5c(c4)OCO5)cc23)c(OC)c1 | inconclusive: 2.2 nM
54 | N#CCSc1nc2sc3c(c2c(=O)n1C1CCCCC1)CCCC3 | inconclusive: 3.4 nM
55 | O=C(Nc1scc(-c2ccccc2)c1C(=O)O)c1ccco1 | inactive
56 | CCOC(=O)C1CCN(CC(=O)Nc2c(C(=O)OC)n(C)c3cccc(C)c23)CC1 | inconclusive: 1.7 nM
57 | C=CCn1c2ccccc2c2nnc(SCc3ccc4nonc4c3)nc21 | inconclusive: 3.1 nM
58 | CCOC(=O)c1sc(NC(=O)c2cccc(S(=O)(=O)N3CCN(C)CC3)c2)cc1C | inconclusive: 1.6 nM
59 | CCCN(Cc1ccccc1)C(=O)Nc1ccc2c(c1)nnn2C | inconclusive: 1.4 nM
60 | CCCN1CCC(NC(=O)Nc2ccc(F)cc2F)CC1 | inconclusive: 1.2 nM
61 | COC(=O)c1c(NC(=O)CN2CCN(C(=O)c3ccco3)CC2)c2c(C)cccc2n1C | inconclusive: 4.7 nM
62 | CN(C)c1ncc2nc(CCc3ccccc3)c(=O)n(Cc3ccc(F)cc3)c2n1 | active: 26 nM
63 | CCn1cc(C(=O)NCCc2ccccc2)c(=O)c2cc(F)c(N3CCN(C)CC3)cc21 | inconclusive: 4.9 nM
64 | CCCNC(=O)c1nc2ncc(Br)cn2n1 | inconclusive: 1.2 nM
65 | C=CCN=C(CC)C1=C(O)CCCC1=O | inconclusive: 1.1 nM
66 | COc1cccc(Nc2ncc3nc(CCc4ccccc4)c(=O)n(CCC#N)c3n2)c1 | inconclusive: 1.1 nM
67 | COc1ccc2[nH]cc(CCNc3ncncc3-c3cccc(NS(C)(=O)=O)c3)c2c1 | inconclusive: 8.4 nM
68 | Cc1cccc2cc(C(c3nnnn3C3CCCC3)N3CCOCC3)c(=O)[nH]c12 (configuration not stated) | inconclusive: 6.7 nM
69 | CC(c1ccccc1)C1C(C#N)=C(N)SC(N)=C1C#N (configuration not stated) | inactive

Row | Structure (SMILES) | max dye-equivalent concentration
70 | CN(C)c1ncc2ncc(=O)n(CCc3ccccc3)c2n1 | inconclusive: 8.6 nM
71 | CC(=O)C1(C)OC(N)=C(C#N)C(c2ccccc2)C1(C#N)C#N (configuration not stated) | active: 27 nM
72 | COc1ccc(CNc2nc(-c3ccccc3OC)nc3ccccc23)c(OC)c1 | active: 12 nM
73 | C[C@]12CC[C@H]3c4ccc(O)cc4CC[C@@H]3[C@H]1CC[C@@H]2OC(=O)CCC1CCCC1 | inactive
74 | CC(=O)N(Cc1cc(=O)[nH]c2ccccc12)c1ccccc1 | inconclusive: 3.1 nM
75 | CCOC(=O)c1cnc(-n2nc(C)cc2C)nc1Nc1ccc2c(c1)OCO2 | inactive
76 | COc1ccc(N2C(=O)c3cccc4cccc(c34)C2=O)nn1 | active: 160 nM
77 | Cc1nc(N2CCN(Cc3ccccc3)CC2)c(C#N)c2c1COC(C)(C)C2 | inconclusive: 1.4 nM
78 | CCCS(=O)(=O)NCc1cn2cccc(C)c2n1 | inactive
79 | CCc1c(C)nc(SC)n(CC#N)c1=O | inconclusive: 1.5 nM
80 | NS(=O)(=O)c1ccc(S(=O)(=O)N(Cc2ccccc2F)CC2CCCO2)cc1 (configuration not stated) | inactive
81 | S=c1[nH]nc(-c2ccncc2)n1CC1CCCO1 (configuration not stated) | inactive
82 | Cc1ccc(NC(=O)c2ccco2)c(NC(=O)c2cccs2)c1 | inconclusive: 1.2 nM
83 | COc1ccccc1OC[C@H](O)CO | inactive
84 | CCOc1cc(NC(=O)c2ccccn2)c(OCC)cc1NC(=O)CC(C)C | inconclusive: 3 nM
85 | COc1ccc(-c2ccc(-c3noc(-c4ccccc4C)n3)c(OC)n2)cc1 | active: 110 nM
86 | Oc1ccc2ccccc2c1/C=C\c1ccc2c(Br)cc(Br)c(O)c2n1 | inactive
87 | CCOC(=O)c1oc2ccc(Br)cc2c1NC(=O)CN1CCN(C)CC1 | inconclusive: 1.1 nM
88 | CCc1cc2c(CN3CCN(C)CC3)cc(=O)oc2cc1O | active: 13000 nM
89 | O=C1Nc2ccc(I)cc2/C1=C/c1cc(Br)c(O)c(Br)c1 | inactive
90 | O=C(O)c1ccccc1C(=O)Nc1cc2c(cc1Br)-c1ccccc1C2=O | inactive
91 | COCCNC(=O)CSc1nc2c(n1-c1ccccc1)CCCC2 | inconclusive: 1.1 nM
92 | O=C(OC(C(=O)NCc1cccs1)c1ccccc1Cl)c1ccco1 (configuration not stated) | inactive
